Test results reported in the supplement of paper PMC10849652.
The list shows a part of the results.

Chains of the proteins cited; added tags and fusions are not shown. Lines headed by an entry give the natural chain unless they say otherwise; changes in a name come on top.
UniProt Q6ZN28: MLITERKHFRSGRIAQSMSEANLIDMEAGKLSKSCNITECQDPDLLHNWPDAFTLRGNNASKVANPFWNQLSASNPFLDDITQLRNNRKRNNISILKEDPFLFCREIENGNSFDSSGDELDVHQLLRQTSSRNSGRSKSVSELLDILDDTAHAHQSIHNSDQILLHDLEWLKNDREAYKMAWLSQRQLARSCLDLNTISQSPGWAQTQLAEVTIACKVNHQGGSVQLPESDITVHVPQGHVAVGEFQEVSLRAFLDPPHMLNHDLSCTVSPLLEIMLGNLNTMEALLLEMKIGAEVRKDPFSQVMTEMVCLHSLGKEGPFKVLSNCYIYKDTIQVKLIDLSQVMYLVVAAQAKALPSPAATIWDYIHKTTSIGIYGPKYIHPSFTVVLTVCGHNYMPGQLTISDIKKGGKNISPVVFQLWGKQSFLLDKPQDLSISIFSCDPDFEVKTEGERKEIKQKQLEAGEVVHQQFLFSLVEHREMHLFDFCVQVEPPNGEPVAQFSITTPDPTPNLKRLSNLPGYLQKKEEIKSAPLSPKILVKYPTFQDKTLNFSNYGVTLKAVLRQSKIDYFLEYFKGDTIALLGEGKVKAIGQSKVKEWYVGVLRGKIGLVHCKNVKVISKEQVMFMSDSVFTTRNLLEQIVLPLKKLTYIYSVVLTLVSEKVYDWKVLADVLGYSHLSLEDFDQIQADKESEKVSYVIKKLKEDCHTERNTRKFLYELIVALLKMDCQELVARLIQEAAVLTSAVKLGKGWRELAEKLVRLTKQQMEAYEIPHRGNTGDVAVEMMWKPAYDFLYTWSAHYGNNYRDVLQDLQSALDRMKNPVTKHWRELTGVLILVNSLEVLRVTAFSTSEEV
UniProt P28482, whole entry, looked up: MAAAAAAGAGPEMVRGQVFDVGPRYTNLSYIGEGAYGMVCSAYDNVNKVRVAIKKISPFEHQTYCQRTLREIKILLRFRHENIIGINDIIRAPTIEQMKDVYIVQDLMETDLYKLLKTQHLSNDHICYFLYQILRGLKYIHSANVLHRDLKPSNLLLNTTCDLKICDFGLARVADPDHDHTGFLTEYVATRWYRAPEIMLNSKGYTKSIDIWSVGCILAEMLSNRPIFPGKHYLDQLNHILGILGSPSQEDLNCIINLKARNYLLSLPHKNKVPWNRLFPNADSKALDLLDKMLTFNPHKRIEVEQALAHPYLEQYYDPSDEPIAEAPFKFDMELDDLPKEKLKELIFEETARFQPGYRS
UniProt Q9UBF1: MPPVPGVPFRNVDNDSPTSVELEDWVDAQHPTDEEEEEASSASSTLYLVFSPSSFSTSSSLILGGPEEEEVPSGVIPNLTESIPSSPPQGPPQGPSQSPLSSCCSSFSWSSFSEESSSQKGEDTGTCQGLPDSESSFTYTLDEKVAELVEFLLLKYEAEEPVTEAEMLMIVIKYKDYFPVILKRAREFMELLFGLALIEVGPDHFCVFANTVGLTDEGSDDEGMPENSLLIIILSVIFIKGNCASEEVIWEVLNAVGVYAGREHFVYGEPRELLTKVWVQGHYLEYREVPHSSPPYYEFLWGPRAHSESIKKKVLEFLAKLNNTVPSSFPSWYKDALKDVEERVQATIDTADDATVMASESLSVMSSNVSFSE
UniProt P49137, whole entry, looked up: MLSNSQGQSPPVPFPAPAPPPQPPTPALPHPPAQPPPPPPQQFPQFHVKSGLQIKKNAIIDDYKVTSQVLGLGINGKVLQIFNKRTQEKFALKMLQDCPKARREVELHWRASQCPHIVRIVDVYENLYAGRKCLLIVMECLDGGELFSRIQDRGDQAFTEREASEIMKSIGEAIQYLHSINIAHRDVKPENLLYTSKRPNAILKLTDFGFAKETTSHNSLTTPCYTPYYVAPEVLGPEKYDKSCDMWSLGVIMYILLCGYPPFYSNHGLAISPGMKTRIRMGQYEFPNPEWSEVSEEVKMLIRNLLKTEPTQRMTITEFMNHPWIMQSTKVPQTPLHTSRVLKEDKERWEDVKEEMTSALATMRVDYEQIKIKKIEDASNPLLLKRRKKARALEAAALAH
UniProt P02788: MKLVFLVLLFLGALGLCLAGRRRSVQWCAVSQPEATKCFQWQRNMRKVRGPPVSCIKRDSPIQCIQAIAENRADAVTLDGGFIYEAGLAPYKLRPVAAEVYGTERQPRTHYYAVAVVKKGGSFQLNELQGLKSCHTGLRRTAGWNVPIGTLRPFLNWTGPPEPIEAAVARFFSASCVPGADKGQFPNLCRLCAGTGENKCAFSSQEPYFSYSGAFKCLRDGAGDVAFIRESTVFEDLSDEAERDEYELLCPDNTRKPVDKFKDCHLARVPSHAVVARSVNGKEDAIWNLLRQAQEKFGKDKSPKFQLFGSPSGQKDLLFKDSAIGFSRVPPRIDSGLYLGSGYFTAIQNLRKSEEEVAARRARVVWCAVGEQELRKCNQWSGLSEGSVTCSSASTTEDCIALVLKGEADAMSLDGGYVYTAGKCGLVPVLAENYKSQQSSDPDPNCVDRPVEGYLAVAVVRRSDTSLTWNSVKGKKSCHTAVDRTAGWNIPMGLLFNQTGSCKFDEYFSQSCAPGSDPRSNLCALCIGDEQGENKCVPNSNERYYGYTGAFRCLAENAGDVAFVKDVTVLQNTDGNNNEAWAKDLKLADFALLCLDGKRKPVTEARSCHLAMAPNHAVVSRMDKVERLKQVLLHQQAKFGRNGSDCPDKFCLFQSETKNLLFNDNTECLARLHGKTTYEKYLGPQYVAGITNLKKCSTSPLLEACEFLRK
UniProt Q5U5X0: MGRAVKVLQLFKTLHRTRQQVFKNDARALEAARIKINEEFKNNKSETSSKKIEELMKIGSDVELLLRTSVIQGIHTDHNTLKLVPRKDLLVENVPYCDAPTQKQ
UniProt Q15013: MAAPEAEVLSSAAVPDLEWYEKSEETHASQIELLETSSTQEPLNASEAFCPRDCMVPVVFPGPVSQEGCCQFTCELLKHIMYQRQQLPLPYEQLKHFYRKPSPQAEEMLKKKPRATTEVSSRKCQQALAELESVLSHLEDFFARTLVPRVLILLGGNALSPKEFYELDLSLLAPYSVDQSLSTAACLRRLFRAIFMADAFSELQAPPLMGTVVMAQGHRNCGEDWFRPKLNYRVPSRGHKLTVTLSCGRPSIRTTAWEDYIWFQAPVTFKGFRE
UniProt P78559: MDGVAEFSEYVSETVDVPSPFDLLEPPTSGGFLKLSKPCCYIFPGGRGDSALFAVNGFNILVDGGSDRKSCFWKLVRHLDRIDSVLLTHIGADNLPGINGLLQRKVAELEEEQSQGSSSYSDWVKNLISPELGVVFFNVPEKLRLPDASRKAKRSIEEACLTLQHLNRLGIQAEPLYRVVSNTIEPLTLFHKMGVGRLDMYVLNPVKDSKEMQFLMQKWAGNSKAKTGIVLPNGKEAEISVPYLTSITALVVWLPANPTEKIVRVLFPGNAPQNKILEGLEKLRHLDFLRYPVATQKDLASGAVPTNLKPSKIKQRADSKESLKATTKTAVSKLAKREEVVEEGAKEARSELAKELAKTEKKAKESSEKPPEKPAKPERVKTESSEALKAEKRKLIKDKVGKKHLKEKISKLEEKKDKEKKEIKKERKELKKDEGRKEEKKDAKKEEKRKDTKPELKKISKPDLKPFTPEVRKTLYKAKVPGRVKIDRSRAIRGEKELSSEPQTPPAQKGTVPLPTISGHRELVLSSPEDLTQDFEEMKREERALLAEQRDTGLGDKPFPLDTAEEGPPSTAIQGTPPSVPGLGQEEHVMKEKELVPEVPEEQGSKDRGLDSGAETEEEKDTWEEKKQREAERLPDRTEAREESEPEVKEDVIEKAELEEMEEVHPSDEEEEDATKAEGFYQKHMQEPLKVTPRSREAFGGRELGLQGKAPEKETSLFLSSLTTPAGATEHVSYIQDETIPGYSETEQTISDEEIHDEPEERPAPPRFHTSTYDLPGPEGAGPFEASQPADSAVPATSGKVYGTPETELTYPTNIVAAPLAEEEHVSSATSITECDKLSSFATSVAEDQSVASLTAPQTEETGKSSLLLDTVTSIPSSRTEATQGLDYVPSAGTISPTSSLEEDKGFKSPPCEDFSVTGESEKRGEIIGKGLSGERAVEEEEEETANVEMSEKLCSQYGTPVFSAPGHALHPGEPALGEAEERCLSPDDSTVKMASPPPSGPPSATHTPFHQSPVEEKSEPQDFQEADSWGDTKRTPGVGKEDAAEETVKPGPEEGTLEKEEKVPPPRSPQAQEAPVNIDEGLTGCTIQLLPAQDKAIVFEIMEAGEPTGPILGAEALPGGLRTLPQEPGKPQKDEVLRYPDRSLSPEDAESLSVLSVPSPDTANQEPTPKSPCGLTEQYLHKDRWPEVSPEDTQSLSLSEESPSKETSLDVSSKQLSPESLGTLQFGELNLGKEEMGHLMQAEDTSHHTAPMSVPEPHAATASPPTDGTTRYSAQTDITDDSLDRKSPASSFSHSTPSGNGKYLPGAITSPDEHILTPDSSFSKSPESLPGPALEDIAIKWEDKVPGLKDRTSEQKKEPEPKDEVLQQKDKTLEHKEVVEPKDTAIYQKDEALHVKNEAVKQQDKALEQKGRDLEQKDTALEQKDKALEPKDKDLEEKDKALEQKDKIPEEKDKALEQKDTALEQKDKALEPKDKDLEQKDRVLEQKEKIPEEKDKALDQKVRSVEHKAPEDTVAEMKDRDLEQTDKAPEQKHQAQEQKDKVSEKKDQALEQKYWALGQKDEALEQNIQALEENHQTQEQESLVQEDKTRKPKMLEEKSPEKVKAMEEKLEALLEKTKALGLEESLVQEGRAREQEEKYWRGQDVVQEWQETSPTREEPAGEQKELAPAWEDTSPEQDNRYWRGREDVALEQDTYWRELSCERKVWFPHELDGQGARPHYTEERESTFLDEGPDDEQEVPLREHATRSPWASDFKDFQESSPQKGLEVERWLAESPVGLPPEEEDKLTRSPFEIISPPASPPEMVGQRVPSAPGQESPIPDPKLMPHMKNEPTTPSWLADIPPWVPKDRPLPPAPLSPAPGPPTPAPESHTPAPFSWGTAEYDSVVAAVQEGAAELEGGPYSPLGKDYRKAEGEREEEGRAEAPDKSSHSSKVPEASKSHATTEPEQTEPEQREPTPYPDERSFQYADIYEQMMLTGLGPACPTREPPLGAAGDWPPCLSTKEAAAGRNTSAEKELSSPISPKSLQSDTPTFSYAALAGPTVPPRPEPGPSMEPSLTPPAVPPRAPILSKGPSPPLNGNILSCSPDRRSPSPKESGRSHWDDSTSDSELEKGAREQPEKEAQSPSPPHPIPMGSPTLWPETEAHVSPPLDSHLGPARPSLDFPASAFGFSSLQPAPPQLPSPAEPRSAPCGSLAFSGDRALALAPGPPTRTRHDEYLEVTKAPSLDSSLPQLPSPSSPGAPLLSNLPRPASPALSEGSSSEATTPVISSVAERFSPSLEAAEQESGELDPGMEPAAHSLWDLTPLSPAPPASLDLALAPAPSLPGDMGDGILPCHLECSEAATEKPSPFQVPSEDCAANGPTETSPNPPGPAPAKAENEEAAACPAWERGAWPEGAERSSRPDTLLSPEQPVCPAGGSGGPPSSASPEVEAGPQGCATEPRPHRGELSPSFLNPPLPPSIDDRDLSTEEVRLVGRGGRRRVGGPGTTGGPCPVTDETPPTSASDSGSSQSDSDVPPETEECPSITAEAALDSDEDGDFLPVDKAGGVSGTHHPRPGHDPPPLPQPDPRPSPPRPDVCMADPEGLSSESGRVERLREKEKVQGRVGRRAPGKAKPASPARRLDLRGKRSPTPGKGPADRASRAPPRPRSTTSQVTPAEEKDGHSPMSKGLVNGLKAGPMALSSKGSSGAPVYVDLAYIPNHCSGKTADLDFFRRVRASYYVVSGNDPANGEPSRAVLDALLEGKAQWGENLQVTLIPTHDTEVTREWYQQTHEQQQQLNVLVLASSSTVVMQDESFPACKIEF
UniProt Q9NZL9, whole entry, looked up: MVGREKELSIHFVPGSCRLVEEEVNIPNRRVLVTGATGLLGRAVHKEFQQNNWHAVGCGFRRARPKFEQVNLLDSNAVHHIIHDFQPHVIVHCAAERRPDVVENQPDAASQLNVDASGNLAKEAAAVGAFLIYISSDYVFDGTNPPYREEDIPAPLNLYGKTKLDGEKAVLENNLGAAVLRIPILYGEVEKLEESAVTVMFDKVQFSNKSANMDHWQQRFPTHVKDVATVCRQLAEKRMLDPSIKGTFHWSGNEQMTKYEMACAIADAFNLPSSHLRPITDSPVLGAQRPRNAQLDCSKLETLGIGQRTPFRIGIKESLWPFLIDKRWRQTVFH

Experiments:
Test in all cases: log2 fold change, soluble protein after heating vs DMSO (PISA); higher = thermal stabilisation; K562 lysate, 10 uM; active = over 0.2 and 3.5 SD of the protein, either way, in both replicates (recomputed)
erlotinib = compound: C#Cc1cccc(Nc2ncnc3cc(OCCOC)c(OCCOC)cc23)c1 [erlotinib]
Outline: (§1)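 The values are log-two fold changes in thermal stability compared with solvent controls and come from duplicates. They were obtained by TMTpro 16plex LC-MS/MS, with channel sums equalised, on the supernatant after 21,000xg for 90 min. That supernatant came from crude K562 extract at 1 mg/mL protein treated with 10 μM compound for 30 min, heated for 3 min across 48°C-58°C, pooled and brought to 0.5% NP-40 at 4°C.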

[1] = compound: C/C(=N\NC(=O)C1=CC(=CC=C1)S(=O)(=O)N2CCOCC2)/C3=C(C=CC(=C3)Cl)O
Outline: as §1

[2] = compound: C1=CC(=CC=C1C2=NC3=C(N2)C=C(C=C3)C(=O)N)OC4=CC=C(C=C4)Cl
Outline: as §1

[3] = compound: C1=CC2=C(C=CC(=C2)/C=C\3/C(=O)NC(=NCC4=CC=CS4)S3)N=C1
Outline: as §1

[4] = compound: C1=CC2=NC=CN=C2C=C1/C=C/3\C(=O)NC(=O)S3
Outline: as §1

[5] = compound: C1=CC=C(C=C1)C2=NC(=C(N2)C3=CC=NC=C3)C4=CC(=C(C=C4)Cl)O
Outline: as §1

[6] = compound: C1=CC=C2C(=C1)C3=NNC4=CC=CC(=C43)C2=O
Outline: as §1

[7] = compound: C1CCN(C1)C(=O)NC2=CC=CC(=C2)NC3=NC=C(C(=N3)NCCC4=CN=CN4)Br
Outline: as §1

[8] = compound: C1CN(CCC1(CC2=CC=C(C=C2)Cl)N)C3=NC=NC4=C3C=CN4
Outline: as §1

IRAK-1-4 Inhibitor I = compound: C1COCCN1CCN2C3=CC=CC=C3N=C2NC(=O)C4=CC(=CC=C4)[N+](=O)[O-] [IRAK-1-4 Inhibitor I]
Outline: as §1

| Target | log2 fold change (erlotinib) | log2 fold change [1] | log2 fold change [2] | log2 fold change [3] | log2 fold change [4] | log2 fold change [5] | log2 fold change [6] | log2 fold change [7] | log2 fold change [8] | log2 fold change (IRAK-1-4 Inhibitor I) |
| --- | --- | --- | --- | --- | --- | --- | --- | --- | --- | --- |
| MACC1 (UniProt Q6ZN28) | inactive: 0.003 | inactive: -0.091 | inactive: 0.02 | inactive: -0.018 | inactive: 0.009 | inactive: 0.041 | inactive: 0.017 | inactive: -0.075 | inactive: 0.005 | inactive: -0.019 |
| MAN2A1 (UniProt Q16706) | inactive: -0.012 | inactive: 0.02 | inactive: -0.001 | inactive: -0.066 | inactive: -0.041 | inactive: -0.005 | inactive: -0.051 | inactive: -0.057 | inactive: 0.043 | inactive: 0.019 |
| MAPK1 (UniProt P28482) | inactive: -0.021 | inactive: -0.017 | inactive: 0.001 | inactive: 0.001 | inactive: -0.016 | inactive: -0.003 | inactive: 0.065 | inactive: 0.017 | inactive: 0.009 | inactive: -0.009 |
| MAGI1 isoform 6 (UniProt Q96QZ7) | inactive: 0.008 | inactive: 0.01 | inactive: 0.003 | inactive: -0.005 | inactive: -0.036 | inactive: -0.012 | inactive: -0.061 | inactive: 0.028 | inactive: 0.036 | inactive: -0.021 |
| MAGI3 isoform 1 (UniProt Q5TCQ9) | inactive: -0.06 | inactive: -0.015 | inactive: -0.047 | inactive: 0.068 | inactive: -0.056 | inactive: 0.026 | inactive: -0.095 | inactive: -0.016 | inactive: 0.045 | inactive: -0.071 |
| LYRM4 (UniProt Q9HD34) | inactive: -0.009 | inactive: 0.016 | inactive: 0.02 | inactive: -0.117 | inactive: -0.017 | inactive: -0.011 | inactive: -0.002 | inactive: -0.02 | inactive: 0.06 | inactive: 0.005 |
| MAGEC2 (UniProt Q9UBF1) | inactive: 0.011 | inactive: -0.002 | inactive: 0.04 | inactive: 0.001 | inactive: 0.026 | inactive: -0.019 | inactive: 0.049 | inactive: 0.063 | inactive: -0.015 | inactive: 0.022 |
| MAPKAPK2 (UniProt P49137) | inactive: -0.047 | inactive: 0.041 | inactive: 0 | inactive: 0.192 | inactive: 0.003 | inactive: 0.013 | inactive: 0.026 | inactive: -0.02 | inactive: 0.018 | inactive: -0.017 |
| MACF1 isoform 3 (UniProt Q9UPN3) | inactive: -0.009 | inactive: 0.018 | inactive: -0.011 | inactive: 0.008 | inactive: -0.026 | inactive: -0.003 | inactive: 0 | inactive: -0.016 | inactive: -0.007 | inactive: -0.006 |
| MARS2 (UniProt Q96GW9) | inactive: 0.06 | inactive: -0.011 | inactive: -0.006 | inactive: 0.002 | inactive: 0.044 | inactive: -0.02 | inactive: 0.003 | inactive: -0.047 | inactive: 0.019 | inactive: 0.035 |
| LYAR (UniProt Q9NX58) | inactive: -0.007 | inactive: -0.004 | inactive: 0 | inactive: -0.007 | inactive: -0.011 | inactive: 0.046 | inactive: 0.018 | inactive: 0.007 | inactive: -0.003 | inactive: -0.018 |
| MAST4 (UniProt O15021) | inactive: -0.019 | inactive: -0.026 | inactive: -0.031 | inactive: 0.027 | inactive: -0.044 | inactive: 0.01 | active: 0.384 | inactive: 0.149 | inactive: -0.011 | inactive: -0.008 |
| LZTR1 (UniProt Q8N653) | inactive: 0.051 | inactive: 0.099 | inactive: -0.018 | inactive: -0.015 | inactive: 0.022 | inactive: -0.005 | inactive: -0.071 | inactive: 0.066 | inactive: 0.106 | inactive: 0.08 |
| LYZ (UniProt P61626) | inactive: -0.188 | inactive: 1.39 | inactive: -0.247 | inactive: -0.099 | inactive: 0 | inactive: 0.067 | inactive: -0.021 | inactive: 0.257 | inactive: -0.098 | inactive: -0.34 |
| MANBA (UniProt O00462) | inactive: 0.005 | inactive: -0.018 | inactive: 0.023 | inactive: 0.034 | inactive: 0.041 | inactive: -0.001 | inactive: -0.005 | inactive: 0.092 | inactive: 0.032 | inactive: 0.028 |
| MAP4K2 (UniProt Q12851) | inactive: 0.001 | inactive: -0.202 | inactive: -0.082 | inactive: -0.195 | inactive: 0.05 | inactive: -0.057 | inactive: 0.355 | inactive: 0.288 | inactive: -0.205 | inactive: -0.046 |
| LTF (UniProt P02788) | inactive: 0.143 | inactive: 1.79 | inactive: -0.146 | inactive: 0.019 | inactive: 0.15 | inactive: -0.169 | inactive: 0.041 | inactive: 0.028 | inactive: -0.037 | inactive: -0.322 |
| LYRM7 (UniProt Q5U5X0) | inactive: 0.004 | inactive: 0.072 | inactive: 0.013 | inactive: -0.017 | inactive: 0.01 | inactive: 0.021 | inactive: 0.016 | inactive: 0.076 | inactive: 0.016 | inactive: 0.089 |
| MAP2K1 (UniProt Q02750) | inactive: 0.016 | inactive: 0.04 | inactive: -0.026 | inactive: -0.02 | inactive: -0.012 | inactive: -0.006 | inactive: 0.188 | inactive: 0.105 | inactive: 0.077 | inactive: 0.011 |
| MAN1A1 (UniProt P33908) | inactive: 0.027 | inactive: 0.001 | inactive: 0.021 | inactive: -0.034 | inactive: 0.024 | inactive: -0.039 | inactive: 0.035 | inactive: 0.066 | inactive: -0.019 | inactive: -0.007 |
| MAD2L1BP isoform 3 (UniProt Q15013) | inactive: 0.067 | inactive: -0.081 | inactive: 0.002 | inactive: 0.078 | inactive: -0.015 | inactive: 0.005 | inactive: 0.063 | inactive: -0.029 | active: 0.263 | inactive: -0.002 |
| MAP1A (UniProt P78559) | inactive: -0.007 | inactive: 0.024 | inactive: -0.013 | inactive: -0.007 | inactive: -0.007 | inactive: 0.007 | inactive: -0.011 | inactive: -0.02 | inactive: -0.017 | inactive: -0.011 |
| MAP4 (UniProt P27816) | inactive: 0.001 | inactive: -0.013 | inactive: 0.031 | inactive: -0.003 | inactive: -0.001 | inactive: 0.023 | inactive: -0.002 | inactive: -0.007 | inactive: 0.003 | inactive: 0.024 |
| MAN1B1 (UniProt Q9UKM7) | inactive: 0.001 | inactive: -0.122 | inactive: -0.071 | inactive: 0.01 | inactive: -0.046 | inactive: -0.031 | inactive: -0.101 | inactive: 0.027 | inactive: 0.004 | inactive: -0.036 |
| MACO1 (UniProt Q8N5G2) | inactive: -0.072 | inactive: -0.009 | inactive: -0.005 | inactive: -0.161 | inactive: 0.062 | inactive: -0.022 | active: -0.336 | inactive: 0 | inactive: 0.012 | inactive: 0.022 |
| MAPK8IP3 (UniProt Q9UPT6) | inactive: -0.038 | inactive: 0.009 | inactive: 0.003 | inactive: -0.018 | inactive: -0.017 | inactive: -0.017 | inactive: 0.044 | inactive: 0.032 | inactive: -0.015 | inactive: -0.011 |
| MAT2B (UniProt Q9NZL9) | inactive: -0.009 | inactive: -0.004 | inactive: -0.033 | inactive: -0.014 | inactive: -0.006 | inactive: -0.01 | inactive: 0.036 | inactive: 0.015 | inactive: -0.004 | inactive: 0.017 |

Some of the entries so far, with bars between the fields:
Target | log2 fold change (erlotinib) | log2 fold change [1] | log2 fold change [2] | log2 fold change [3] | log2 fold change [4] | log2 fold change [5] | log2 fold change [6] | log2 fold change [7] | log2 fold change [8] | log2 fold change (IRAK-1-4 Inhibitor I)
LYRM4 (UniProt Q9HD34) | inactive: -0.009 | inactive: 0.016 | inactive: 0.02 | inactive: -0.117 | inactive: -0.017 | inactive: -0.011 | inactive: -0.002 | inactive: -0.02 | inactive: 0.06 | inactive: 0.005
MAN1B1 (UniProt Q9UKM7) | inactive: 0.001 | inactive: -0.122 | inactive: -0.071 | inactive: 0.01 | inactive: -0.046 | inactive: -0.031 | inactive: -0.101 | inactive: 0.027 | inactive: 0.004 | inactive: -0.036
